The values that follow come from PubChem BioAssay AID328 (DTP/NCI, 2004).

The assay deals with BDF1 mice, P388 leukemia ip, median survival T/C. The experiment in a line: NCI In Vivo Anticancer Drug Screen. Data for tumor model P388 Leukemia (intraperitoneal) in B6D2F1 (BDF1) mice. The conditions noted are these: T/C endpoint: median survival time, higher T/C = longer survival. A digest of the protocol: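 T/C = treated-group survival ÷ vehicle-control survival; tumour transplanted into mice before dosing.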

Where [1] appears, read: dose: 2.0 mg/kg/injection, schedule: Q04DX003 (ip), vehicle: saline.

The list is a part of this screen's results and no random one: it gathers some chemical classes. Not every dose and run of a compound is shown. T/C gives the treated animals as a percentage of the vehicle group. For survival time, the PubChem record calls one and a half times the control and up active, and a quarter to a half above the control has no call in these data; cut-offs in other NCI protocols can differ. Some entries show no survivor count and are marked so; the dose need not have been tolerated. Schedules are NCI's codes, read here as Q, the interval in days (D) or hours (H), X, the number of doses. Some doses were run more than once; the results are listed from low to high.

In the case of `ClCCN(CCCl)Cc1ccc(Cl)cc1`, the T/C runs as follows: (dose: 0.29 mg/kg/injection, schedule: Q01DX009 (ip), vehicle: saline) 113 % of control [survivor count not shown]; (dose: 0.44 mg/kg/injection, schedule: Q01DX009 (ip), vehicle: saline) 127 % of control [survivor count not shown]; (dose: 0.68 mg/kg/injection, schedule: Q01DX009 (ip), vehicle: saline) 127 % of control [survivor count not shown]; (dose: 1.0 mg/kg/injection, schedule: Q01DX009 (ip), vehicle: saline) 136 % of control [survivor count not shown]; (dose: 1.3 mg/kg/injection, schedule: Q04DX003 (ip), vehicle: saline) 104 % of control [survivor count not shown]; (dose: 1.56 mg/kg/injection, schedule: Q01DX009 (ip), vehicle: saline) 159 % of control [survivor count not shown]. In addition, the T/C runs as follows: under setting [1], 104 % of control [survivor count not shown]; (dose: 3.1 mg/kg/injection, schedule: Q04DX003 (ip), vehicle: saline) 130 % of control [survivor count not shown]; (dose: 3.12 mg/kg/injection, schedule: Q01DX009 (ip), vehicle: saline) 150 % of control [survivor count not shown]; (dose: 4.1 mg/kg/injection, schedule: Q01DX009 (ip), vehicle: saline) 150 [survivor count not shown] and 170 % of control [survivor count not shown]; (dose: 4.7 mg/kg/injection, schedule: Q04DX003 (ip), vehicle: saline) 135 % of control [survivor count not shown]; (dose: 6.25 mg/kg/injection, schedule: Q01DX009 (ip), vehicle: saline) 150 [survivor count not shown], 168 [survivor count not shown], 190 % of control [survivor count not shown]. Further, the T/C (dose: 7.2 mg/kg/injection, schedule: Q04DX003 (ip), vehicle: saline) is 141 % of control [survivor count not shown]; the T/C (dose: 9.3 mg/kg/injection, schedule: Q01DX009 (ip), vehicle: saline) is 130 [survivor count not shown] and 181 % of control [survivor count not shown]; the T/C (dose: 10.0 mg/kg/injection, schedule: Q04DX003 (ip), vehicle: saline) is 158 % of control [survivor count not shown]; the T/C (dose: 12.5 mg/kg/injection, schedule: Q01DX009 (ip), vehicle: saline) is 107 % of control [survivor count not shown]; the T/C (dose: 16.5 mg/kg/injection, schedule: Q04DX003 (ip), vehicle: saline) was 160 [survivor count not shown] and 227 % of control [survivor count not shown]; the T/C (dose: 25.0 mg/kg/injection, schedule: Q04DX003 (ip), vehicle: saline) was 190 [survivor count not shown] and 238 % of control [survivor count not shown]. In addition, the T/C (dose: 37.5 mg/kg/injection, schedule: Q04DX003 (ip), vehicle: saline) is 122 [survivor count not shown] and 185 % of control [survivor count not shown].

As for `CN(C)c1ccc(N(CCCl)CCCl)cc1`, the T/C is, setting by setting: (dose: 6.25 mg/kg/injection, schedule: Q01DX001 (ip), vehicle: saline) 142 % of control [survivor count not shown]; (dose: 12.5 mg/kg/injection, schedule: Q01DX001 (ip), vehicle: saline) 145 % of control [survivor count not shown]; (dose: 25.0 mg/kg/injection, schedule: Q01DX001 (ip), vehicle: saline) 106 % of control [survivor count not shown].

For the molecule `Nc1ncnc2c1ncn2CCN(CCCl)CCCl`, the T/C was 144 % of control [survivor count not shown] (dose: 0.27 mg/kg/injection, schedule: Q01DX009 (ip), vehicle: saline); 126 % of control [survivor count not shown] (dose: 0.4 mg/kg/injection, schedule: Q01DX009 (ip), vehicle: saline); 122 % of control [survivor count not shown] (dose: 0.88 mg/kg/injection, schedule: Q04DX003 (ip), vehicle: saline); 145 % of control [survivor count not shown] (dose: 1.32 mg/kg/injection, schedule: Q04DX003 (ip), vehicle: saline); 181 % of control [survivor count not shown] (dose: 1.88 mg/kg/injection, schedule: Q01DX009 (ip), vehicle: saline); 199 % of control [survivor count not shown] (dose: 2.0 mg/kg/injection, schedule: Q01DX009 (ip), vehicle: saline). For the same molecule, the T/C runs as follows: under setting [1], 145 % of control [survivor count not shown]; (dose: 3.0 mg/kg/injection, schedule: Q01DX009 (ip), vehicle: saline) 208 % of control [survivor count not shown]; (dose: 3.0 mg/kg/injection, schedule: Q04DX003 (ip), vehicle: saline) 154 % of control [survivor count not shown]; (dose: 3.3 mg/kg/injection, schedule: Q01DX009 (ip), vehicle: saline) 209 % of control [survivor count not shown]; (dose: 3.75 mg/kg/injection, schedule: Q01DX009 (ip), vehicle: saline) 231 % of control [survivor count not shown]; (dose: 4.5 mg/kg/injection, schedule: Q01DX009 (ip), vehicle: saline) 225 % of control [survivor count not shown]. Further, the T/C (dose: 5.0 mg/kg/injection, schedule: Q01DX009 (ip), vehicle: saline) was 250 % of control [survivor count not shown]; the T/C (dose: 7.5 mg/kg/injection, schedule: Q01DX009 (ip), vehicle: saline) is 213 [survivor count not shown] and 281 % of control [survivor count not shown].

For the molecule `O=CCCCc1ccc(N(CCCl)CCCl)cc1`, the T/C by setting is: (dose: 0.74 mg/kg/injection, schedule: Q12HX018 (ip), vehicle: Klucel (hydroxypropylcellulose) (HPC)) 105 % of control [survivor count not shown]; (dose: 1.1 mg/kg/injection, schedule: Q12HX018 (ip), vehicle: Klucel (hydroxypropylcellulose) (HPC)) 115 % of control [survivor count not shown]; (dose: 1.7 mg/kg/injection, schedule: Q12HX018 (ip), vehicle: Klucel (hydroxypropylcellulose) (HPC)) 127 % of control [survivor count not shown]; (dose: 2.5 mg/kg/injection, schedule: Q12HX018 (ip), vehicle: Klucel (hydroxypropylcellulose) (HPC)) 113 % of control [survivor count not shown]; (dose: 3.9 mg/kg/injection, schedule: Q12HX018 (ip), vehicle: Klucel (hydroxypropylcellulose) (HPC)) 183 % of control [survivor count not shown]; (dose: 6.0 mg/kg/injection, schedule: Q12HX018 (ip), vehicle: Klucel (hydroxypropylcellulose) (HPC)) 177 % of control [survivor count not shown]. For the same molecule, under “dose: 9.0 mg/kg/injection, schedule: Q12HX018 (ip), vehicle: Klucel (hydroxypropylcellulose) (HPC)”, the T/C is 233 % of control [survivor count not shown].

For `ClCCNCCCl`, the T/C is, setting by setting: (dose: 18.8 mg/kg/injection, schedule: Q01DX010 (ip), vehicle: saline) 104 [survivor count not shown] and 150 % of control [survivor count not shown]; (dose: 37.5 mg/kg/injection, schedule: Q01DX010 (ip), vehicle: saline) 186 [survivor count not shown] and 210 % of control [survivor count not shown].

`Oc1ccc(Cl)cc1CN(CCCl)CCCl`: the T/C was 153 % of control [survivor count not shown] (dose: 12.5 mg/kg/injection, schedule: Q04DX003 (ip), vehicle: saline with Tween-80); 150 % of control [survivor count not shown] (dose: 16.5 mg/kg/injection, schedule: Q04DX003 (ip), vehicle: saline with Tween-80); 153 [survivor count not shown] and 183 % of control [survivor count not shown] (dose: 25.0 mg/kg/injection, schedule: Q04DX003 (ip), vehicle: saline with Tween-80); 191 % of control [survivor count not shown] (dose: 37.5 mg/kg/injection, schedule: Q04DX003 (ip), vehicle: saline with Tween-80); 107 % of control [survivor count not shown] (dose: 50.0 mg/kg/injection, schedule: Q04DX003 (ip), vehicle: saline with Tween-80).
